Data: paper PMC5996148
This is one part of the list.

Experiments:
Assay in all cases: protein microarray (ProtoArray v5.0), streptavidin-Alexa Fluor 647
Settings in all cases: 3'-biotin; 20 mM Tris (pH 7.5), 5 mM MgCl2, 100 mM KCl, 0.1% Tween-20, A/T-rich and random oligonucleotide blockers; temperature not stated; high values mean tight binding
TGM1 (human) = test system: TGM1 (human)
TGM4 (human) = test system: TGM4 (human)
[1] = test system: THAP domain-containing protein 3 (human)
THBD (human) = test system: THBD (human)
THEM5 (human) = test system: THEM5 (human)
THG1L (human) = test system: THG1L (human)
THOC3 (human) = test system: THOC3 (human)
THOP1 (human) = test system: THOP1 (human)
TIAF1 (human) = test system: TIAF1 (human)
TICAM2 (human) = test system: TICAM2 (human)

GGGAGGCTGAGGCAGG [G4-1 biotinylated (PQS2)]
binding signal (TGM1 (human)): -0.291 z-score
binding signal (TGM4 (human)): -0.274 z-score
binding signal [1]: -0.316 z-score
binding signal (THBD (human)): -0.312 z-score
binding signal (THEM5 (human)): -0.347 z-score
binding signal (THG1L (human)): -0.327 z-score
binding signal (THOC3 (human)): -0.336 z-score
binding signal (THOP1 (human)): -0.311 z-score
binding signal (TIAF1 (human)): -0.3 z-score
binding signal (TICAM2 (human)): -0.313 z-score
